The other results are listed elsewhere or left out. The calls rarely recur for the same compound in another form.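 In K562 cells expressing nanoluciferase-fused kinases, luminescence was recorded at 4 h intervals between 2 and 18 h, normalized as percent of control with DMSO at 100% and a positive control at 0%. A significant (2 sigma) signal drop marks a time point as decreased. The authors' rule for a hit is not shown and takes in more than the number of time points.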
Experiments:
Assay in all cases: kinase-Nluc reporter destabilization hit call (1 = scored as downregulated) (binary); higher = compound decreases kinase abundance
Conditions in all cases: K562; 2-18 h
PDPK1 = PDPK1 (UniProt O15530)
PIK4CA = PIK4CA (UniProt P42356)
PIK4CB = PIK4CB (UniProt Q9UBF8)
PLK1 = PLK1 (UniProt P53350)
PRKAA1 = PRKAA1 (UniProt Q13131)
PRKCA = PRKCA (UniProt P17252)
PTK2 = PTK2 (UniProt Q05397)
PTK2B = PTK2B (UniProt Q14289)
RAF1 = RAF1 (UniProt P04049)
[1] = molecular target: RAF1_S257L (clone: RAF1_mut) (UniProt P04049)
RET = RET (UniProt P07949)
[2] = molecular target: RET_M918T (clone: RET_mut) (UniProt P07949)
RIOK1 = RIOK1 (UniProt Q9BRS2)
RIPK1 = RIPK1 (UniProt Q13546)
RIPK2 = RIPK2 (UniProt O43353)
ROR2 = ROR2 (UniProt Q01974)
RPS6KA1 = RPS6KA1 (UniProt Q15418)
SPHK1 = SPHK1 (UniProt Q9NYA1)
SRC = SRC (UniProt P12931)
STK24 = STK24 (UniProt Q9Y6E0)

Chains of the proteins cited; added tags and fusions are not shown.
UniProt P42356, whole entry, looked up: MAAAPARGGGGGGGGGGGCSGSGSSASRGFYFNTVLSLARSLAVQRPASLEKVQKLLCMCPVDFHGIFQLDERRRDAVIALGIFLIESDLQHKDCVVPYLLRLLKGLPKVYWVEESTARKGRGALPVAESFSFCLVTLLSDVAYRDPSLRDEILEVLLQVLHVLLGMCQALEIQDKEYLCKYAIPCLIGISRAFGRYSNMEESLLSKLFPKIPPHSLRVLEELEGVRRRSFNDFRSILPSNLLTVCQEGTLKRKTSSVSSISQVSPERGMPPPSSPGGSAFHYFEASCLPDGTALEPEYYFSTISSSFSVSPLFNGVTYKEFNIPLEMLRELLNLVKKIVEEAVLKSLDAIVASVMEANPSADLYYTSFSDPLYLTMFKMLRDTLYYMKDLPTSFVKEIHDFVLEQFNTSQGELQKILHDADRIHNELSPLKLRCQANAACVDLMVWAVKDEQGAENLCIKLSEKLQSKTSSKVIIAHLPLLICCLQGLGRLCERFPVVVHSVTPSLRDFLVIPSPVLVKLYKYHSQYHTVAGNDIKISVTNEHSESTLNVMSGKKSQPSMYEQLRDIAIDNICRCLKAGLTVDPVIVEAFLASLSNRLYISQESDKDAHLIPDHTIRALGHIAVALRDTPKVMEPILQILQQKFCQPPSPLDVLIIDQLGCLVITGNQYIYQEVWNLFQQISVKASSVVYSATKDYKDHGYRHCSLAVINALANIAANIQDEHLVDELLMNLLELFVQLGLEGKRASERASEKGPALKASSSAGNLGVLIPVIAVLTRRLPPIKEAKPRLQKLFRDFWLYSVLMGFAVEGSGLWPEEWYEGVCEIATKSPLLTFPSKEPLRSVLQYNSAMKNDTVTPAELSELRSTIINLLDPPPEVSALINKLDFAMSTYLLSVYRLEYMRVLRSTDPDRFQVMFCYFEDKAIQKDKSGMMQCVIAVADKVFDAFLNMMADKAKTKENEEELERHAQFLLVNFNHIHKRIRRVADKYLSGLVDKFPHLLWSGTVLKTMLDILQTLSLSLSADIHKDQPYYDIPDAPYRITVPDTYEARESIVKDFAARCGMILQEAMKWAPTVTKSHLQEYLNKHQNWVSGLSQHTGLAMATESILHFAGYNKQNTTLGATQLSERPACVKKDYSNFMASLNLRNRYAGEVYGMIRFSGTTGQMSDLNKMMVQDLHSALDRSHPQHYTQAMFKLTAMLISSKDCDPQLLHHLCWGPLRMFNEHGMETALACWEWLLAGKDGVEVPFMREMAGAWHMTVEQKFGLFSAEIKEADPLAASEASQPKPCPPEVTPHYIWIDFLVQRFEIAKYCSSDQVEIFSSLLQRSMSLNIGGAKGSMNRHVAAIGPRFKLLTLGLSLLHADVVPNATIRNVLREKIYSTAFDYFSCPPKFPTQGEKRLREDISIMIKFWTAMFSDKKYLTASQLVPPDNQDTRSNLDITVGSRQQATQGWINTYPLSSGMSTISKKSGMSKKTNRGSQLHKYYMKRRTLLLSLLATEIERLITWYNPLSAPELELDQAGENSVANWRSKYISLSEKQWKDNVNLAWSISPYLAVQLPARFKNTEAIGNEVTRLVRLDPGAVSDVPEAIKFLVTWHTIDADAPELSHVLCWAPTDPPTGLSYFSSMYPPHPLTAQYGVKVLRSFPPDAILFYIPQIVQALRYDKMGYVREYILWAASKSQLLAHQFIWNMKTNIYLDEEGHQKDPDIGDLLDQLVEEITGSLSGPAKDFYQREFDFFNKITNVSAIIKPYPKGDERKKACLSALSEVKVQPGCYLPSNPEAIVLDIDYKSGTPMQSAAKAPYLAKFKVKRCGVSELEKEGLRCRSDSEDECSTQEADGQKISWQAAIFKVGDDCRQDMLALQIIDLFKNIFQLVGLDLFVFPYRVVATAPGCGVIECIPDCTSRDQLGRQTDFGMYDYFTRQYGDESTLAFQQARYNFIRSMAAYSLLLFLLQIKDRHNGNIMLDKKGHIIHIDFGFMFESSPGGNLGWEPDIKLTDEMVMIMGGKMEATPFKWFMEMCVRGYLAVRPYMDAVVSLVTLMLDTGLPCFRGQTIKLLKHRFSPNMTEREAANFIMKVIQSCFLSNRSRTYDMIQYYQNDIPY
UniProt Q14289, whole entry, looked up: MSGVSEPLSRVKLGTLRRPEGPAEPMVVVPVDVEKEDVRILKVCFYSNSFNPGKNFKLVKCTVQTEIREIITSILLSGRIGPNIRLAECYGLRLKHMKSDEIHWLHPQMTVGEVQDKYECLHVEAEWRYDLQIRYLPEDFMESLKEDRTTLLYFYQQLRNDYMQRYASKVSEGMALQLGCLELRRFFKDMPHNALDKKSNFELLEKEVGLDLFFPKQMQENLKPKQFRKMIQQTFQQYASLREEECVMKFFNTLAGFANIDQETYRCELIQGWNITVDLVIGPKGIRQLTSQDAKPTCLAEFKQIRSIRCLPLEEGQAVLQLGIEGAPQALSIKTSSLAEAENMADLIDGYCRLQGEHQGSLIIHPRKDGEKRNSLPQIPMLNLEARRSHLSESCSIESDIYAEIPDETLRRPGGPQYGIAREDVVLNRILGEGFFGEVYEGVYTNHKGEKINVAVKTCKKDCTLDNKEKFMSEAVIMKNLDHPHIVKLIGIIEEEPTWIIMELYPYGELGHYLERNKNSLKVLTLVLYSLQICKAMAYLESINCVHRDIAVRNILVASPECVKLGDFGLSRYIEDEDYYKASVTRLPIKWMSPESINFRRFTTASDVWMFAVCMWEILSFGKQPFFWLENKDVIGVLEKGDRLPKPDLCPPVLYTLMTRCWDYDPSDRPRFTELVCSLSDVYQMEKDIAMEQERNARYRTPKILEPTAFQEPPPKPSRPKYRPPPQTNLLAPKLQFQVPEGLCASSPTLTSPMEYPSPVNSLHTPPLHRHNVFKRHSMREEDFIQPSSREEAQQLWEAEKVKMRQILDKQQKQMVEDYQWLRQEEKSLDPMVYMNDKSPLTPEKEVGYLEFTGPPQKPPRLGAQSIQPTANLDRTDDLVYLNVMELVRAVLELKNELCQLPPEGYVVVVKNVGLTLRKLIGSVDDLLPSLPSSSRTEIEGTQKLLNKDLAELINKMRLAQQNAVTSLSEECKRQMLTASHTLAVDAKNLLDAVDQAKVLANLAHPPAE
UniProt P07949, whole entry, looked up: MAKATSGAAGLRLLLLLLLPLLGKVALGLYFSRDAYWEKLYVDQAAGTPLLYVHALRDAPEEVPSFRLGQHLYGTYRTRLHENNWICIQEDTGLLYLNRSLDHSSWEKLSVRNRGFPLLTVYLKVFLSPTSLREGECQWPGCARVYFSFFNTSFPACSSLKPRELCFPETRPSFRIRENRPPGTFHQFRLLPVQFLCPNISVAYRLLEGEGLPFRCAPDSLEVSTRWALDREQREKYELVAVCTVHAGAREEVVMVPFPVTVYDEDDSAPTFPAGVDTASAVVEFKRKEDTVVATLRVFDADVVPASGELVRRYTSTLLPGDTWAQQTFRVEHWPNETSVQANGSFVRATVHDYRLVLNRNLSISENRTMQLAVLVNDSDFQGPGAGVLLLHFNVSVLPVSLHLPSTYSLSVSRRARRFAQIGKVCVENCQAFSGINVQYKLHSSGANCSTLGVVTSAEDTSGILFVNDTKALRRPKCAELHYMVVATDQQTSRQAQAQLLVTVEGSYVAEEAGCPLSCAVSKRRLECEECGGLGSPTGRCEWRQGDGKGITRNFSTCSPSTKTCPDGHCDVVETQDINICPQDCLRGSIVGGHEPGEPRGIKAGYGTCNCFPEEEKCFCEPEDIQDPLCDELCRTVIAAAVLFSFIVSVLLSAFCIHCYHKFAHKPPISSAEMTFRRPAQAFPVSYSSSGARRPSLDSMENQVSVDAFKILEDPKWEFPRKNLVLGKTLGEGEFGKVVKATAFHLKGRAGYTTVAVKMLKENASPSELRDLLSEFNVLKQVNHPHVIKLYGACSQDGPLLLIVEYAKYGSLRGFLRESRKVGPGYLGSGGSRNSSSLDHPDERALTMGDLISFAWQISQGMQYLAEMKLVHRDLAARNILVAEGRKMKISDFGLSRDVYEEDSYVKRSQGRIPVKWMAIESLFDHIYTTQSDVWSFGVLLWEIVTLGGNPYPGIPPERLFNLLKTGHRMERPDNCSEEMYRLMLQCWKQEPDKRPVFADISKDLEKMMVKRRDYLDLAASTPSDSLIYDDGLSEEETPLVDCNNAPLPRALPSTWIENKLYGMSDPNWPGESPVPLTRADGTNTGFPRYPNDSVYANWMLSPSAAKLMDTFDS
UniProt P07949, whole entry M918T, looked up: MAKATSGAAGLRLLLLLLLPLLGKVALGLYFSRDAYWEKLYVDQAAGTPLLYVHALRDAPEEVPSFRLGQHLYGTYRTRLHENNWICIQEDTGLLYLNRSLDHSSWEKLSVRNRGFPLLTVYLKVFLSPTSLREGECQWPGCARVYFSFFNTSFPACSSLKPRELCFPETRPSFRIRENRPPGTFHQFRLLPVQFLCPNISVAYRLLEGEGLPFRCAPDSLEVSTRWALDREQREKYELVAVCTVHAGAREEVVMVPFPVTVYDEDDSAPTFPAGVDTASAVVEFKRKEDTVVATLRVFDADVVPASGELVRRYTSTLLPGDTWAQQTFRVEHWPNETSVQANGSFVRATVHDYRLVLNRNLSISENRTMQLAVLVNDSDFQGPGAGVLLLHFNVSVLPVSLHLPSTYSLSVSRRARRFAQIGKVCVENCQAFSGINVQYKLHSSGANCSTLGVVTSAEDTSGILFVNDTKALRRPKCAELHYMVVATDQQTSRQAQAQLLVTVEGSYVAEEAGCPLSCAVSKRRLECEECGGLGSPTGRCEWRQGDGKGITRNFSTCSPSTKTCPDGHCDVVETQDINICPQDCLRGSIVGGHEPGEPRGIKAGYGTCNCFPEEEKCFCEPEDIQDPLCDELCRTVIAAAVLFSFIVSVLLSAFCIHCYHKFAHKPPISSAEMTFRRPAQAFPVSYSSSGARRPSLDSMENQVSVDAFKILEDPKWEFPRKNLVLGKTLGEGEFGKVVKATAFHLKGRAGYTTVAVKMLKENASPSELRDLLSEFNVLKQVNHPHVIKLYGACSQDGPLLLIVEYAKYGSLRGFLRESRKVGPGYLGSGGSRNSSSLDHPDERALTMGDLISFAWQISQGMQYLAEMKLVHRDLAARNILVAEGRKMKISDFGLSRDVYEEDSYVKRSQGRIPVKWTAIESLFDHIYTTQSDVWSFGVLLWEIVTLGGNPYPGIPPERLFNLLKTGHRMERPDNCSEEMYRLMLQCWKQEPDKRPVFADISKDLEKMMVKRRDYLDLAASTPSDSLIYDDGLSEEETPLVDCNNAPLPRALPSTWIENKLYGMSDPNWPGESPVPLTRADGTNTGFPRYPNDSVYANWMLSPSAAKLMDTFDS
UniProt Q9NYA1, whole entry: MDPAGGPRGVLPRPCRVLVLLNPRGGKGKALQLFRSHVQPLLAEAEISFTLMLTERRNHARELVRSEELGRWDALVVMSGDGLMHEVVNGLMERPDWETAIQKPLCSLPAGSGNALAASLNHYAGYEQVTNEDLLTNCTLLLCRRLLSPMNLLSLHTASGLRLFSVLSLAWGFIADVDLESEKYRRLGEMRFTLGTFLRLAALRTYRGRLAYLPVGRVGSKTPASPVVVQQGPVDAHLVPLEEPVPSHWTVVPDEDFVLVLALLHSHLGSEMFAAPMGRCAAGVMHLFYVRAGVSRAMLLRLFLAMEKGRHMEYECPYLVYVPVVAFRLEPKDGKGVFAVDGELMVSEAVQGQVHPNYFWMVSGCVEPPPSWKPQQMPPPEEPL

| Compound | kinase-Nluc reporter destabilization hit call (PDPK1) | kinase-Nluc reporter destabilization hit call (PIK4CA) | kinase-Nluc reporter destabilization hit call (PIK4CB) | kinase-Nluc reporter destabilization hit call (PLK1) | kinase-Nluc reporter destabilization hit call (PRKAA1) | kinase-Nluc reporter destabilization hit call (PRKCA) | kinase-Nluc reporter destabilization hit call (PTK2) | kinase-Nluc reporter destabilization hit call (PTK2B) | kinase-Nluc reporter destabilization hit call (RAF1) | kinase-Nluc reporter destabilization hit call [1] | kinase-Nluc reporter destabilization hit call (RET) | kinase-Nluc reporter destabilization hit call [2] | kinase-Nluc reporter destabilization hit call (RIOK1) | kinase-Nluc reporter destabilization hit call (RIPK1) | kinase-Nluc reporter destabilization hit call (RIPK2) | kinase-Nluc reporter destabilization hit call (ROR2) | kinase-Nluc reporter destabilization hit call (RPS6KA1) | kinase-Nluc reporter destabilization hit call (SPHK1) | kinase-Nluc reporter destabilization hit call (SRC) | kinase-Nluc reporter destabilization hit call (STK24) |
| --- | --- | --- | --- | --- | --- | --- | --- | --- | --- | --- | --- | --- | --- | --- | --- | --- | --- | --- | --- | --- |
| [O-][n+]1cccc(-c2nc3c(Cl)cccc3cc2[C@@H](Nc2ncnc3cccnc23)C(F)(F)F)c1 [Seletalisib] (10 µM) | inactive: 0 | inactive: 0 | inactive: 0 | inactive: 0 | inactive: 0 | inactive: 0 | inactive: 0 | inactive: 0 | inactive: 0 | inactive: 0 | inactive: 0 | inactive: 0 | inactive: 0 | inactive: 0 | inactive: 0 | inactive: 0 | inactive: 0 | inactive: 0 | inactive: 0 | inactive: 0 |
| C=C(F)C(=O)N1CCN(c2nc(OC[C@@H]3CCCN3C)nc3c2CCN(c2cccc4cccc(Cl)c24)C3)C[C@@H]1CC#N (2.5 µM) | inactive: 0 | inactive: 0 | inactive: 0 | inactive: 0 | inactive: 0 | inactive: 0 | inactive: 0 | inactive: 0 | inactive: 0 | inactive: 0 | inactive: 0 | inactive: 0 | inactive: 0 | inactive: 0 | inactive: 0 | inactive: 0 | inactive: 0 | inactive: 0 | inactive: 0 | inactive: 0 |
| COc1cc(-c2cc(-c3cc(OC)c(OC)c(OC)c3)cc(C(F)P(=O)(OCOC(=O)C(C)(C)C)OCOC(=O)C(C)(C)C)c2)cc(OC)c1OC (stereo not given) [Stafia-1-dipivaloyloxymethyl ester] (2.5 µM) | inactive: 0 | inactive: 0 | inactive: 0 | inactive: 0 | inactive: 0 | inactive: 0 | inactive: 0 | inactive: 0 | inactive: 0 | inactive: 0 | inactive: 0 | inactive: 0 | inactive: 0 | inactive: 0 | inactive: 0 | inactive: 0 | inactive: 0 | inactive: 0 | inactive: 0 | inactive: 0 |
| O=C(O)c1cc(O)c2c(c1)[C@@H]([C@H]1c3cc(C(=O)O)cc(O)c3C(=O)c3c(O[C@@H]4O[C@H](CO)[C@@H](O)[C@H](O)[C@H]4O)cccc31)c1cccc(O[C@@H]3O[C@H](CO)[C@@H](O)[C@H](O)[C@H]3O)c1C2=O [Sennoside B] (2.5 µM) | inactive: 0 | inactive: 0 | inactive: 0 | inactive: 0 | inactive: 0 | inactive: 0 | inactive: 0 | inactive: 0 | inactive: 0 | inactive: 0 | inactive: 0 | inactive: 0 | inactive: 0 | inactive: 0 | inactive: 0 | inactive: 0 | inactive: 0 | inactive: 0 | inactive: 0 | inactive: 0 |
| COc1cc2ncnc(Nc3ccc(NC(=O)c4ccccc4)cc3)c2cc1OC [Aurora kinase inhibitor-2] (2.5 µM) | inactive: 0 | inactive: 0 | inactive: 0 | inactive: 0 | inactive: 0 | inactive: 0 | inactive: 0 | inactive: 0 | inactive: 0 | inactive: 0 | inactive: 0 | inactive: 0 | inactive: 0 | inactive: 0 | inactive: 0 | inactive: 0 | inactive: 0 | inactive: 0 | inactive: 0 | inactive: 0 |
| COc1ccc(-n2c(C)c([N+](=O)[O-])c3ccc(O)cc32)cc1 (10 µM) | inactive: 0 | inactive: 0 | inactive: 0 | inactive: 0 | active: 1 | inactive: 0 | inactive: 0 | inactive: 0 | inactive: 0 | inactive: 0 | inactive: 0 | inactive: 0 | inactive: 0 | inactive: 0 | inactive: 0 | inactive: 0 | inactive: 0 | inactive: 0 | inactive: 0 | inactive: 0 |
| COc1c(O)cc2oc3cc(O)c(CC=C(C)C)c(O)c3c(=O)c2c1CCC(C)(C)O [Garcinone D] (2.5 µM) | inactive: 0 | inactive: 0 | inactive: 0 | inactive: 0 | inactive: 0 | inactive: 0 | inactive: 0 | inactive: 0 | inactive: 0 | inactive: 0 | inactive: 0 | inactive: 0 | inactive: 0 | inactive: 0 | inactive: 0 | inactive: 0 | inactive: 0 | inactive: 0 | inactive: 0 | inactive: 0 |
| CC(C)(C)C(=O)N1N=CC[C@H]1c1ccccc1 (10 µM) | inactive: 0 | inactive: 0 | inactive: 0 | inactive: 0 | inactive: 0 | inactive: 0 | inactive: 0 | inactive: 0 | inactive: 0 | inactive: 0 | inactive: 0 | inactive: 0 | inactive: 0 | inactive: 0 | inactive: 0 | inactive: 0 | inactive: 0 | inactive: 0 | inactive: 0 | inactive: 0 |
| CN(C)c1ncnc2nc[nH]c12 [6-(Dimethylamino)purine] (10 µM) | inactive: 0 | inactive: 0 | inactive: 0 | inactive: 0 | inactive: 0 | inactive: 0 | inactive: 0 | inactive: 0 | inactive: 0 | inactive: 0 | inactive: 0 | inactive: 0 | inactive: 0 | inactive: 0 | inactive: 0 | inactive: 0 | inactive: 0 | inactive: 0 | inactive: 0 | inactive: 0 |
| NS(=O)(=O)c1ccc(N2N=C(c3ccccc3)CC2c2ccccc2)cc1 (stereo not given) (10 µM) | inactive: 0 | inactive: 0 | inactive: 0 | inactive: 0 | inactive: 0 | inactive: 0 | inactive: 0 | inactive: 0 | inactive: 0 | inactive: 0 | inactive: 0 | inactive: 0 | inactive: 0 | inactive: 0 | inactive: 0 | inactive: 0 | inactive: 0 | inactive: 0 | inactive: 0 | inactive: 0 |
| COc1ccccc1/C=C1\C(=O)Nc2ccccc21 (10 µM) | inactive: 0 | inactive: 0 | inactive: 0 | inactive: 0 | inactive: 0 | inactive: 0 | inactive: 0 | inactive: 0 | inactive: 0 | inactive: 0 | inactive: 0 | inactive: 0 | inactive: 0 | inactive: 0 | inactive: 0 | inactive: 0 | inactive: 0 | inactive: 0 | inactive: 0 | inactive: 0 |
| CSc1ccc(CN2CCCC(Nc3ccc4[nH]ncc4c3)C2)cc1 (stereo not given) [Rho-Kinase-IN-1] (10 µM) | inactive: 0 | inactive: 0 | inactive: 0 | inactive: 0 | inactive: 0 | inactive: 0 | inactive: 0 | inactive: 0 | inactive: 0 | inactive: 0 | inactive: 0 | inactive: 0 | inactive: 0 | inactive: 0 | inactive: 0 | inactive: 0 | inactive: 0 | inactive: 0 | inactive: 0 | inactive: 0 |
| O=c1cc(-c2ccc(O)c(O)c2O)oc2ccccc12 (10 µM) | inactive: 0 | inactive: 0 | inactive: 0 | inactive: 0 | inactive: 0 | inactive: 0 | inactive: 0 | inactive: 0 | inactive: 0 | inactive: 0 | inactive: 0 | inactive: 0 | inactive: 0 | inactive: 0 | inactive: 0 | inactive: 0 | inactive: 0 | inactive: 0 | inactive: 0 | inactive: 0 |
| CCOC(=O)c1c2c3c(cccc3[nH]c1=O)C(=O)c1ccccc1-2 (10 µM) | inactive: 0 | inactive: 0 | inactive: 0 | inactive: 0 | inactive: 0 | inactive: 0 | inactive: 0 | inactive: 0 | inactive: 0 | inactive: 0 | inactive: 0 | inactive: 0 | inactive: 0 | inactive: 0 | inactive: 0 | inactive: 0 | inactive: 0 | inactive: 0 | inactive: 0 | inactive: 0 |
| CC(C)c1cnn2c(NCc3ccccc3-n3cccn3)nc(OC3CCCNC3)nc12 (stereo not given) (2.5 µM) | inactive: 0 | inactive: 0 | inactive: 0 | inactive: 0 | inactive: 0 | inactive: 0 | inactive: 0 | inactive: 0 | inactive: 0 | inactive: 0 | inactive: 0 | inactive: 0 | inactive: 0 | inactive: 0 | inactive: 0 | inactive: 0 | inactive: 0 | inactive: 0 | inactive: 0 | inactive: 0 |
| Cn1cc(-c2ccc(F)c(C(F)(F)F)c2)nc1C1CCN(c2ncnc3[nH]ncc23)CC1 (10 µM) | inactive: 0 | inactive: 0 | inactive: 0 | inactive: 0 | inactive: 0 | inactive: 0 | inactive: 0 | inactive: 0 | inactive: 0 | inactive: 0 | inactive: 0 | inactive: 0 | inactive: 0 | inactive: 0 | inactive: 0 | inactive: 0 | inactive: 0 | inactive: 0 | inactive: 0 | inactive: 0 |
